In the assay the target is flag-GLP1R-GFP expressed on CHO cells (Homo sapiens (Human)) (UniProt P43220). As to the kind of experiment: flow cytometry, IgG on CHO-GLP1R cells; bound equally to CHO-parent cells (non-specific binder). For orientation: In flow cytometry, cells or beads pass a laser one at a time.

Amino acid sequences for entries named in this document (tags omitted). A change or cut given only in a name is not applied to a line headed by its entry.
UniProt P43220: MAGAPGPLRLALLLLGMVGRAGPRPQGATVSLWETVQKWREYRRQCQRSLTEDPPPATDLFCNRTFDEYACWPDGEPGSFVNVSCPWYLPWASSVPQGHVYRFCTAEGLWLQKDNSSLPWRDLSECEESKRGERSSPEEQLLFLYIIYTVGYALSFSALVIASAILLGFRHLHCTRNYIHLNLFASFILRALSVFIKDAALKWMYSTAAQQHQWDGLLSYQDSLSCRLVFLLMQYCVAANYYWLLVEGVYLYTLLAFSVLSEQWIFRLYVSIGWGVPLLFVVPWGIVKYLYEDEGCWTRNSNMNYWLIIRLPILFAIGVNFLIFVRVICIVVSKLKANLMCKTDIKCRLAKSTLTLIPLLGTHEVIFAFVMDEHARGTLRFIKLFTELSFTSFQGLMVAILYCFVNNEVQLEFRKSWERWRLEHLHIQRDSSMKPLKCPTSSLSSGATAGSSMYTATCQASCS

Results are given in words; binding and its absence hold for the method and conditions named. Some results given as binding are weak or reduced against the parent protein; the word gives no strength.

B1: GLP1R-238 (antibody, human IgG2, lambda, V domains shown)
VH: QVQLVQSGAEVKKPGSSVKVSCKASGGSFSSHAISWVRQAPGQGLEWMGGIIPIFGAPNYAQKFQGRVTITADESTSTAYMELSSLRSEDTAVYYCARANQHFSQAGRAARVPGPSSSLGPRGYHYYGMDVWGQGTLVTVSS
VL: QSVLTQPPSVSAAPGQKVTISCSGSTSNIANNYVSWYQQLPGTAPKLLIYANNRRPSGIPDRFSGSKSGTSATLGITGLQTGDEADYYCGAWDVRLDVGVFGGGTKLTVLG
For the molecule B1, the binding entry was “binds”.
